The supplement of paper PMC12067093, “Discovery and optimisation of a covalent ligand for TRIM25 and its application to targeted protein ubiquitination” (Chemical Science, 2025)
The other results are listed elsewhere or left out.

Compound: Cc1cc(ccc1-c1ccccc1)C(=O)N1CCCN(CC1)C(=O)CCl [compound 10]
Test: probe-labelled cysteine peptide fold change vs DMSO (competition) (log2 fold change); higher = less target engagement (more negative = stronger competition)
Settings: THP-1, incubation time: 4 h
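Further: competitive profiling in live THP-1 cells: cysteine peptides tagged with an iodoacetamide desthiobiotin (IA-DTB) probe, intensity after compound treatment relative to DMSO-treated cells.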

Target	probe-labelled cysteine peptide fold change (10 µM)	probe-labelled cysteine peptide fold change (50 µM)
SEPT6_Q14141_47_SVSQGFCFNILCVGETGLGK (UniProt Q14141)	0.578	0.368
SLC25A3_Q00325-2_67+75_YYALCGFGGVLSCGLTHTAVVPLDLVK (UniProt Q00325)	0.149	-0.147
SLC25A1_P53007_127+141_GLLCGLGAGVAEAVVVVCPMETIK (UniProt P53007)	0.261	0.15
SIN3A_Q96ST3_425_PQRPSQNGCQIR (UniProt Q96ST3)	-0.158	-0.258
SLC27A3_Q5K4L6_112_ALAAAAADPEGPEGGCSLAWR (UniProt Q5K4L6)	-0.185	-0.196
SLAIN2_Q9P270_165_QVLDYPSPDVECAK (UniProt Q9P270)	0.0188	-0.17
SF3B3_Q15393_1179_NVIDGDLCEQFNSMEPNK (UniProt Q15393)	-0.393	-0.0757
SETX_Q7Z333_884_NEELVIFSFHENNCK (UniProt Q7Z333)	-0.233	-0.444
SF3A2_Q15428_59_LCLTLHNNEGSYLAHTQGK (UniProt Q15428)	-0.0247	-0.402
SFMBT2_Q5VUG0_426_NPGELCVASVVSVK (UniProt Q5VUG0)	0.135	0.3
SLC25A20_O43772_23_NLLAGGFGGVCLVFVGHPLDTVK (UniProt O43772)	-0.0809	0.136
SKA1_Q96BD8_29_NCGQEPTLK (UniProt Q96BD8)	-0.141	-0.337
SF3A1_Q15459_244_EAENPREVLDQVCYR (UniProt Q15459)	-0.23	-0.308
SIGIRR_Q6IA17_174_LYDAYVSYSDCPEDR (UniProt Q6IA17)	-0.234	-0.396
SERPINB6_P35237_100_SCDFLSSFR (UniProt P35237)	0.0275	-0.0148
SLC27A2_O14975_414_YDVEKDEPVRDENGYCVR (UniProt O14975)	0.0781	0.0963
SERPINB8_P50452_128_FYQAELEELSFAEDTEECRK (UniProt P50452)	-0.0682	0.182
SLC12A4_Q9UP95_817_CTTAAHLALLVPK (UniProt Q9UP95)	0.131	0.323
SETX_Q7Z333_2265_MHPDICLFPSNYVYNR (UniProt Q7Z333)	0.237	-0.0627
SIPA1L3_O60292_597_DALEYVIPELNIHCLR (UniProt O60292)	0.0406	-0.039
SLC27A3_Q5K4L6_256_GPLLHCLR (UniProt Q5K4L6)	0.0831	-0.0208

Target	probe-labelled cysteine peptide fold change (10 µM)	probe-labelled cysteine peptide fold change (50 µM)
SLC27A3_Q5K4L6_579_DVFRPGDVFFNTGDLLVCDDQGFLR (UniProt Q5K4L6)	-0.0141	0.00179
SF3B1_O75533_1244_VAIGPCR (UniProt O75533)	-0.136	0.406
SLC25A3_Q00325_136_GWAPTFLGYSMQGLCK (UniProt Q00325)	0.0031	0.224
SHTN1_A0MZ66_550_KLEGCTSSK (UniProt A0MZ66)	-0.274	-0.399
SERPINB8_P50452_98_TCDFLPDFK (UniProt P50452)	-0.112	-0.0335
SH3KBP1_Q96B97_301_DCIDVGWWEGELNGRR (UniProt Q96B97)	0.0534	-0.22
SHCBP1_Q8NEM2_426_GDTFVDCTGADIK (UniProt Q8NEM2)	0.00734	0.0924
SIRT1_Q96EB6_326_EIYPGQFQPSLCHK (UniProt Q96EB6)	-0.0594	-0.388
SHMT1_P34896_384_VLEACSIACNK (UniProt P34896)	-0.147	-0.261
SERPINB8_P50452_128_FYQAELEELSFAEDTEECR (UniProt P50452)	0.135	0.484
SHMT2_P34897_119_RYYGGAEVVDEIELLCQR (UniProt P34897)	-0.00529	0.256
SETD2_Q9BYW2_736_DLDDTCMLHK (UniProt Q9BYW2)	-0.304	-0.445
SLC25A36_Q96CQ1_239_TCATTIAYPHEVVR (UniProt Q96CQ1)	-0.122	0.332
SGK3_Q96BR1_13_ESCPSVSIPSSDEHREK (UniProt Q96BR1)	-0.152	-0.389
SIN3A_Q96ST3_1063_AEQLMSDENCFK (UniProt Q96ST3)	0.133	0.317
SH3GLB2_Q9NR46_252_CLHEFVK (UniProt Q9NR46)	-0.039	-0.347
SHCBP1_Q8NEM2_591_IQTSGEPDVAERVDLEELIECATGK (UniProt Q8NEM2)	-0.559	-0.255
SLC25A10_Q9UBX3_22+23_WYFGGLASCGAACCTHPLDLLK (UniProt Q9UBX3)	0.103	0.133
SHC1_P29353_212_KPCSRPLSSILGR (UniProt P29353)	-0.0754	-0.391
SHPRH_Q149N8_1025_QLVCALNGLAGIHIIK (UniProt Q149N8)	-0.00218	-0.125
SETD2_Q9BYW2_1241_TELSFSSSCEIPHVDGLHSSEELR (UniProt Q9BYW2)	-0.0483	-0.244

Target	probe-labelled cysteine peptide fold change (10 µM)	probe-labelled cysteine peptide fold change (50 µM)
SETD3_Q86TU7_36_CSSPAPGPGK (UniProt Q86TU7)	-0.0291	-0.0265
SLC1A4_P43007_500_VEAIPNCK (UniProt P43007)	-0.218	-0.188
SEPT9_Q9UHD8_411_VHCCLYFIPATGHSLRPLDIEFMK (UniProt Q9UHD8)	-0.0585	-0.0235
SHMT2_P34897_241_MREVCDEVK (UniProt P34897)	0.0274	-0.0366
SEPT7_Q16181_204_ADTLTPEECQQFK (UniProt Q16181)	0.0143	0.303
SGO2_Q562F6_681_DNENQCDYR (UniProt Q562F6)	0.0758	-0.25
SF3B3_Q15393_547_CAVNQR (UniProt Q15393)	0.197	0.0267
SF3A1_Q15459_244_EVLDQVCYR (UniProt Q15459)	-0.258	0.023
SLC25A1_P53007_127_GLLCGLGAGVAEAVVVVCPMETIK (UniProt P53007)	0.0716	0.146
SIRPA_P78324_331_LTCQVEHDGQPAVSK (UniProt P78324)	-0.201	-0.044
SKIV2L_Q15477_247_GDTVSASPCSAPLAR (UniProt Q15477)	-0.402	-0.17
SF1_Q15637_282_CGGAGHIASDCK (UniProt Q15637)	0.0635	-0.0325
SETX_Q7Z333_2384+2389_DCVIVTCVR (UniProt Q7Z333)	0.0181	-0.172
SETD2_Q9BYW2_1766_LTCLELIQNTHSQSCLK (UniProt Q9BYW2)	0.117	0.068
SLC25A19_Q9HC21_124_EFSVHFVCGGLAACMATLTVHPVDVLR (UniProt Q9HC21)	0.0634	0.0675
SGO2_Q562F6_798_HGHDMQPACQNDSK (UniProt Q562F6)	-0.0428	-0.0703
SIKE1_Q9BRV8_164_AVQVDDDQFCK (UniProt Q9BRV8)	0.0643	0.212
SIRT3_Q9NTG7_256+259_LVEAHGTFASATCTVCQRPFPGEDIR (UniProt Q9NTG7)	0.0105	-0.301
SHCBP1_Q8NEM2_500+510_GAGIEIYPGSQCTLSDNGIHHCK (UniProt Q8NEM2)	-0.0561	-0.139
SF3B6_Q9Y3B4_74_NACDHLSGFNVCNR (UniProt Q9Y3B4)	0.0149	-0.15
SLC25A22_Q9H936_271_GVNEDTYSGILDCAR (UniProt Q9H936)	0.0192	0.0793

Taken from above:
Value of SERPINB8_P50452_128_FYQAELEELSFAEDTEECR (UniProt P50452) under probe-labelled cysteine peptide fold change (50 µM): 0.484
Value of SF1_Q15637_282_CGGAGHIASDCK (UniProt Q15637) under probe-labelled cysteine peptide fold change (10 µM): 0.0635
Value of SLC25A19_Q9HC21_124_EFSVHFVCGGLAACMATLTVHPVDVLR (UniProt Q9HC21) under probe-labelled cysteine peptide fold change (10 µM): 0.0634
Value of SETX_Q7Z333_2265_MHPDICLFPSNYVYNR (UniProt Q7Z333) under probe-labelled cysteine peptide fold change (10 µM): 0.237

The listing continues.

Target	probe-labelled cysteine peptide fold change (10 µM)	probe-labelled cysteine peptide fold change (50 µM)
SLC1A5_Q15758_467_SCTVLNVEGDALGAGLLQNYVDR (UniProt Q15758)	-0.0568	0.27
SHC1_P29353_169_YMGCVEVLQSMR (UniProt P29353)	0.356	0.2
SIPA1_Q96FS4_632_VVFNCACR (UniProt Q96FS4)	0.0656	-0.131
SF3B3_Q15393_340_YFDTVPVAAAMCVLK (UniProt Q15393)	-0.159	0.0584
SETD2_Q9BYW2_1125_ACPQTDK (UniProt Q9BYW2)	-0.235	-0.561
SERPINB8_P50452_348_FCADHPFLFFIR (UniProt P50452)	-0.213	0.265
SKP1_P63208_160_ENQWCEEK (UniProt P63208)	-0.168	-0.0981
SEPT6_Q14141_42+47_SVSQGFCFNILCVGETGLGK (UniProt Q14141)	0.0263	0.409
SLC25A12_O75746_375_NSFDCFK (UniProt O75746)	0.0316	0.446
SLC25A10_Q9UBX3_23_WYFGGLASCGAACCTHPLDLLK (UniProt Q9UBX3)	0.166	0.36
SHC1_P29353-6_416_QMPPPPPCPAGR (UniProt P29353)	-0.26	-0.557
SLC25A5_P05141_257_GTDIMYTGTLDCWRK (UniProt P05141)	-0.0476	-0.127
SLC25A16_P16260_246_THVNLLCGGVAGAIAQTISYPFDVTR (UniProt P16260)	0.291	0.596
SLC25A12_O75746_563_AGQTTYSGVIDCFRK (UniProt O75746)	0.0727	-0.109
SEPT9_Q9UHD8_248_SQEATEAAPSCVGDMADTPR (UniProt Q9UHD8)	-0.0293	-0.251
SF1_Q15637_292_CGGAGHIASDCK (UniProt Q15637)	0.0464	0.00531
SLC19A1_P41440_220_CETSASELER (UniProt P41440)	-0.296	-0.929
SEPT9_Q9UHD8_531_WGTIEVENTTHCEFAYLR (UniProt Q9UHD8)	-0.0632	0.107
SEPT6_Q14141_301_CKLEEMGFK (UniProt Q14141)	-0.223	-0.339
SHMT2_P34897_80_GLELIASENFCSR (UniProt P34897)	0.193	0.303
